Experimental data from doi:10.1101/517789.
These are yes or no findings as the source states them, for the method shown. Binding seen in cells or lysates may run through a third protein. A yes stands for co-enrichment or nearness to the bait. Other partners may have been found. Where a sequence is shown, tags or fusion partners need not be part of it.

Amino acid sequences for entries named in this document (tags omitted). Residues count along the entry.
UniProt Q9JHG7: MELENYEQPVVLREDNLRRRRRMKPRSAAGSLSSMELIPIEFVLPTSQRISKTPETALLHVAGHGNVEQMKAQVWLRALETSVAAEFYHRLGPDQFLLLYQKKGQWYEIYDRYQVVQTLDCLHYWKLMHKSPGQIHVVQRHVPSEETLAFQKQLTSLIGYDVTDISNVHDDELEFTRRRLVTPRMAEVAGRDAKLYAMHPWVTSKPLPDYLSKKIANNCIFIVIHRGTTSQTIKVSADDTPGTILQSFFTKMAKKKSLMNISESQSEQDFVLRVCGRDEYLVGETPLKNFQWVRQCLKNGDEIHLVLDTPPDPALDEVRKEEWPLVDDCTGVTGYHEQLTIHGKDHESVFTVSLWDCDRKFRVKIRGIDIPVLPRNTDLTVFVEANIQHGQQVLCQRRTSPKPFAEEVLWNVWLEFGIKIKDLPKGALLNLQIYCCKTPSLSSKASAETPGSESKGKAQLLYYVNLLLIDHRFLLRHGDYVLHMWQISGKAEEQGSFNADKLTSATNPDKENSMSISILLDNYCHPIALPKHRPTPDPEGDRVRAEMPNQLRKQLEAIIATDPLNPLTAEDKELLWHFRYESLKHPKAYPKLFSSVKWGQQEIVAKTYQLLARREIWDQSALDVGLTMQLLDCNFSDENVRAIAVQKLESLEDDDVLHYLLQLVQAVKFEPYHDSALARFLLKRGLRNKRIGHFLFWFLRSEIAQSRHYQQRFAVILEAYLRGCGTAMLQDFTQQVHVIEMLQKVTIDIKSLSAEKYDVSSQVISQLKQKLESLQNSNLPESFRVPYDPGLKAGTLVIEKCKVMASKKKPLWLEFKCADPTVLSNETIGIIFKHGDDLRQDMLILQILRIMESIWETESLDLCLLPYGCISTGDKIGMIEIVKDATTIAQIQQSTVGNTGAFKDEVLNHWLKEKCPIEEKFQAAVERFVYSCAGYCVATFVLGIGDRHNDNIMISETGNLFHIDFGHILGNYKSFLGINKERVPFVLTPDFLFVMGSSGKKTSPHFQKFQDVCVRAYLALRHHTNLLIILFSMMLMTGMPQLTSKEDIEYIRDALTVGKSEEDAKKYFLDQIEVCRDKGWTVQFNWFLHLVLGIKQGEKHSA
UniProt P49817: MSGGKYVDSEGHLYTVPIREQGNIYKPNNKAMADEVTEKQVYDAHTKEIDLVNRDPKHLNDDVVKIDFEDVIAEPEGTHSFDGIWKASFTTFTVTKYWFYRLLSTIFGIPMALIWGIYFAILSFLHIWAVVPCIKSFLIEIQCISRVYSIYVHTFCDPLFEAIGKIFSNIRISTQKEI
UniProt Q07113, residues 36-2483: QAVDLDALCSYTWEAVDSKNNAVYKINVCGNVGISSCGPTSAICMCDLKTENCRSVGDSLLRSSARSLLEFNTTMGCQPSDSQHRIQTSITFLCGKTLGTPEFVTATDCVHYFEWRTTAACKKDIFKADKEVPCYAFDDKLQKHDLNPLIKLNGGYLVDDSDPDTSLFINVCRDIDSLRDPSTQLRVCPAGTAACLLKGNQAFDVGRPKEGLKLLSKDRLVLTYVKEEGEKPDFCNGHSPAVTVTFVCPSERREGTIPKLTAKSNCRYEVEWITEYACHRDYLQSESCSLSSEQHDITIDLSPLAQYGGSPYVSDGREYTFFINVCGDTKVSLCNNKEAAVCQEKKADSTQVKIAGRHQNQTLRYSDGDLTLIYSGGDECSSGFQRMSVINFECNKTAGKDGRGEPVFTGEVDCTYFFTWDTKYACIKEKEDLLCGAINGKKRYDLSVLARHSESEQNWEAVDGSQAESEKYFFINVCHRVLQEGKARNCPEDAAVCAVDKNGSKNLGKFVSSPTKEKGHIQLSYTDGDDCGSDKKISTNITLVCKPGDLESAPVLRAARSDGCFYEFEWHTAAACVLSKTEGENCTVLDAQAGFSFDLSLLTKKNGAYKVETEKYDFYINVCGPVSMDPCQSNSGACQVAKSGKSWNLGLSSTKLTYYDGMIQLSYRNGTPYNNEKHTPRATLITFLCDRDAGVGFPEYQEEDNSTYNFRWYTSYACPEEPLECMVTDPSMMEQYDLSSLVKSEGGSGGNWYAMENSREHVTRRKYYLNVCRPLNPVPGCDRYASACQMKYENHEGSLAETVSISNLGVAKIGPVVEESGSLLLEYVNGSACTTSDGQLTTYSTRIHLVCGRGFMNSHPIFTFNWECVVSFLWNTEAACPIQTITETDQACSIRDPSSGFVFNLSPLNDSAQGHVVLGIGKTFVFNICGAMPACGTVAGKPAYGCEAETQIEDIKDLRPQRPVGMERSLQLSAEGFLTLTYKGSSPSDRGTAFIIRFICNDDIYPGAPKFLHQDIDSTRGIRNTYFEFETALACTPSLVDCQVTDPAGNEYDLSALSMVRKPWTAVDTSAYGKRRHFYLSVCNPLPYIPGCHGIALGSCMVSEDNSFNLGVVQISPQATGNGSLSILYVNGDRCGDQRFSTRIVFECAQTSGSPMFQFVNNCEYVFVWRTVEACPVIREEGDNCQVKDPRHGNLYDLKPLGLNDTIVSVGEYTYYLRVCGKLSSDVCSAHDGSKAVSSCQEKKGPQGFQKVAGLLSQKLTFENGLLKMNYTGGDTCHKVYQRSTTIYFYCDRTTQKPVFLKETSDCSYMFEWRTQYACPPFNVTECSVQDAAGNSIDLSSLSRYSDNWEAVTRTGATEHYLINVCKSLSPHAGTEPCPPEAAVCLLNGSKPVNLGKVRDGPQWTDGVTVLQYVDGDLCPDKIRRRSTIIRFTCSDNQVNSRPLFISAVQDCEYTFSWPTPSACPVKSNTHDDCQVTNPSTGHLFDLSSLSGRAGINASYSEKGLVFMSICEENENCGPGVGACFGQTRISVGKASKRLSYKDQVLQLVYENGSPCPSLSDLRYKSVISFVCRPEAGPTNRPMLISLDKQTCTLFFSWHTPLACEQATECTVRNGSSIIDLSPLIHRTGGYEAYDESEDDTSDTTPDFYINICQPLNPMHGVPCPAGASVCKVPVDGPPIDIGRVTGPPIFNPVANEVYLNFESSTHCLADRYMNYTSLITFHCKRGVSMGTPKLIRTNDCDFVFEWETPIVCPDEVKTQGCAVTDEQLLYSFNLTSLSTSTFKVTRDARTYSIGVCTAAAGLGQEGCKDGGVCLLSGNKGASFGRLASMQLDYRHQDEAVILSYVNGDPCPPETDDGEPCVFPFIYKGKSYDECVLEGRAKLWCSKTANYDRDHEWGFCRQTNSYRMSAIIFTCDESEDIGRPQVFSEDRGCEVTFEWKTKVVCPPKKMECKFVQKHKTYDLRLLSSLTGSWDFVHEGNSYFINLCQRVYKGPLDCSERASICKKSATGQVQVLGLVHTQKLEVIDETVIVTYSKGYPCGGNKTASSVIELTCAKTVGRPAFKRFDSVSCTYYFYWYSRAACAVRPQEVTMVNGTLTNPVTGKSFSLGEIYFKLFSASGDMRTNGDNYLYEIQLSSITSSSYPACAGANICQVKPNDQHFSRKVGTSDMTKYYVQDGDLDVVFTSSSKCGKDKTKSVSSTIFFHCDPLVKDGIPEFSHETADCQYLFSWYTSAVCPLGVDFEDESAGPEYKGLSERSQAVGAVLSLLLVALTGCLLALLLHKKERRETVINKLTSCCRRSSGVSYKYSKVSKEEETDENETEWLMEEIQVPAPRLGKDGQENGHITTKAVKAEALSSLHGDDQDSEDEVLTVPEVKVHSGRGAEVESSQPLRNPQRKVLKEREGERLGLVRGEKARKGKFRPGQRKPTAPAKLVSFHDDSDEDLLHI
UniProt Q64727: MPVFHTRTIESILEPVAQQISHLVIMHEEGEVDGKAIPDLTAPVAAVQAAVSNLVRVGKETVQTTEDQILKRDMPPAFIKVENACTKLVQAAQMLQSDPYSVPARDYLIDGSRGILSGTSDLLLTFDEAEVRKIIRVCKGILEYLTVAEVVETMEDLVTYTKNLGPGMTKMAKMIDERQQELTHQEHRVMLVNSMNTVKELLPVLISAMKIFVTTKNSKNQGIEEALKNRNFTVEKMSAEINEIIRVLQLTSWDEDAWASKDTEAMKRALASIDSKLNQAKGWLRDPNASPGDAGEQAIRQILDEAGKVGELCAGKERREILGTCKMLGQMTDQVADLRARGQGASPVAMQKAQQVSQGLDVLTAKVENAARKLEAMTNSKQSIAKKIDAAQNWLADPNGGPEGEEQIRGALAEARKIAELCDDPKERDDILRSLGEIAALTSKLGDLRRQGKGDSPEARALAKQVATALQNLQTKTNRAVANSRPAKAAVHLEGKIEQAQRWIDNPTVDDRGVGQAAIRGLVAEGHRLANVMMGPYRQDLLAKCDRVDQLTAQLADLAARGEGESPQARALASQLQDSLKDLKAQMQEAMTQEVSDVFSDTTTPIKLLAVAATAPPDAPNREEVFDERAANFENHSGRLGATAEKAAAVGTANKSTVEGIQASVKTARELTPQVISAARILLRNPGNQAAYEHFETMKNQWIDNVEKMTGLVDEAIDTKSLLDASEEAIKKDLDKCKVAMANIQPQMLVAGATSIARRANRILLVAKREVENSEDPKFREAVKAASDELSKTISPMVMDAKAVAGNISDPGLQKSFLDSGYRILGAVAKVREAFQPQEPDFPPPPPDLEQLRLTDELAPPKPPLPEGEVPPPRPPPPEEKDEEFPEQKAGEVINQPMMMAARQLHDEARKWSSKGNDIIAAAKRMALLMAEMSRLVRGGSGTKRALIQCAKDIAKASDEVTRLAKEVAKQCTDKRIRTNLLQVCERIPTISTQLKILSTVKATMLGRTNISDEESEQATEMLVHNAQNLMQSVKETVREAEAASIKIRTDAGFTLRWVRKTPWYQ
UniProt P35569: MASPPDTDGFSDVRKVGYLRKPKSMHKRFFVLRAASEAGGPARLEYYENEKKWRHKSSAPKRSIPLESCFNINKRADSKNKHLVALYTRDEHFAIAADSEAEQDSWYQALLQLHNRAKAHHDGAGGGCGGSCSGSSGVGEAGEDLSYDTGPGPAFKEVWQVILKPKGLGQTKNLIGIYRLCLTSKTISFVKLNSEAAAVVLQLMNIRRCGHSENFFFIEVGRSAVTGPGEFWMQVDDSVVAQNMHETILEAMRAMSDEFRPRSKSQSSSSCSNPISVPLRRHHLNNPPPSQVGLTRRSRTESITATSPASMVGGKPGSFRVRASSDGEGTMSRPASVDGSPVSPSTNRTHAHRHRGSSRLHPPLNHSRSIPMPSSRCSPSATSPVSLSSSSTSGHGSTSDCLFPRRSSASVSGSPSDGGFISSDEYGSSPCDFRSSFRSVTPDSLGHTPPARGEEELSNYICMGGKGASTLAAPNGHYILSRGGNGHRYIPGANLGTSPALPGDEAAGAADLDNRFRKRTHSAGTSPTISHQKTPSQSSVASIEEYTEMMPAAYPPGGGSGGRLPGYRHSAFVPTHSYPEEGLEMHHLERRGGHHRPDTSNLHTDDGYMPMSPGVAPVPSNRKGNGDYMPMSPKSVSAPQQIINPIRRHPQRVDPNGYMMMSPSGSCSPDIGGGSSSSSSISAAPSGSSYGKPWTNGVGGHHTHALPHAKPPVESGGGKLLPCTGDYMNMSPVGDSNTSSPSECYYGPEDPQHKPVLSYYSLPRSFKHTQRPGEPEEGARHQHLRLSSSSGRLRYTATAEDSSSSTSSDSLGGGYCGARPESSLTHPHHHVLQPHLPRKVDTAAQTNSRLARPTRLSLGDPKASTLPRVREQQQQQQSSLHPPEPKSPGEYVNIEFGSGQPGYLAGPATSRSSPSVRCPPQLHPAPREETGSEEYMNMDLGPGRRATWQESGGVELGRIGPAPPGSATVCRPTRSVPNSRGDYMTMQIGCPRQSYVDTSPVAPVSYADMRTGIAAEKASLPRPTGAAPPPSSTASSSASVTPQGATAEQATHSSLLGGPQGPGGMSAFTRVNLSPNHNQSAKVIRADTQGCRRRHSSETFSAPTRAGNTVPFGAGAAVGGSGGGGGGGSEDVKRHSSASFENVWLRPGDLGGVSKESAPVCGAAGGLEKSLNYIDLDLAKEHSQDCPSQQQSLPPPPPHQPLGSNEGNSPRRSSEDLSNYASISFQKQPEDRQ

T1: 6His-tagged plakoglobin (UniProt P14923)
T1 sequence: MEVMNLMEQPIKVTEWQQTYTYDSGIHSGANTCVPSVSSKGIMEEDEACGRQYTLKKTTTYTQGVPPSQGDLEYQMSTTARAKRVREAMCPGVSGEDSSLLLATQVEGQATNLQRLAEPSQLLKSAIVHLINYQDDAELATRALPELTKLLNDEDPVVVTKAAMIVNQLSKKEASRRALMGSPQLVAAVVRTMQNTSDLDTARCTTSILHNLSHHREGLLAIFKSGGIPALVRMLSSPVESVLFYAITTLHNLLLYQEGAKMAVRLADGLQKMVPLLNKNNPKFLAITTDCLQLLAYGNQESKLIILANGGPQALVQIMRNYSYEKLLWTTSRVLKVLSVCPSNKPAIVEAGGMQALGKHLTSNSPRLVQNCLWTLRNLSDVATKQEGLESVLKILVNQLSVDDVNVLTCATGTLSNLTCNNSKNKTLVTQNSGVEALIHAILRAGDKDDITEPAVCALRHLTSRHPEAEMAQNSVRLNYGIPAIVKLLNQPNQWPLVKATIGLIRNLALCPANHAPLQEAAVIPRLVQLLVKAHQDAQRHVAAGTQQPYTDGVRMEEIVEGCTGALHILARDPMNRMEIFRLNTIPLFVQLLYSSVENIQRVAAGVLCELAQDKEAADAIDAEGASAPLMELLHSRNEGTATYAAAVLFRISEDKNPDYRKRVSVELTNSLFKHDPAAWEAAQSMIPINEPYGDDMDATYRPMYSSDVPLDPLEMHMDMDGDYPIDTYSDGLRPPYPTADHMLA


Target: T1, 6His-tagged plakoglobin
Test: affinity purification with mass spectrometry

Molecule	binding
catalytic subunit of PI3K, gamma (from UniProt Q9JHG7 1-1102) (enzyme)	binds
caveolin-1 (from UniProt P49817 1-178)	binds
dystrophin (from UniProt P11531 1-3678)	binds
insulin-like growth factor 2 receptor (from UniProt Q07113 36-2483)	binds
vinculin (from UniProt Q64727 1-1066)	binds
β-syntrophin (mouse (endogenous in skeletal muscle))	binds
α-1-syntrophin (protein, UniProt Q61234 1-503) MASGRRAPRTGLLELRCGAGSGAGGERWQRVLLSLAEDALTVSPADGEPGPEPEPAQLNGAAEPGAAPPQLPEALLLQRRRVTVRKADAGGLGISIKGGRENKMPILISKIFKGLAADQTEALFVGDAILSVNGEDLSSATHDEAVQALKKTGKEVVLEVKYMKEVSPYFKNSAGGTSVGWDSPPASPLQRQPSSPGPQPRNLSEAKHVSLKMAYVSRRCTPTDPEPRYLEICAADGQDAVFLRAKDEASARSWAGAIQAQIGTFIPWVKDELQALLTATGTAGSQDIKQIGWLTEQLPSGGTAPTLALLTEKELLFYCSLPQSREALSRPTRTAPLIATSSAHRLVHSGPSKGSVPYDAELSFALRTGTRHGVDTHLFSVESPQELAAWTRQLVDGCHRAAEGIQEVSTACTWNGRPCSLSVHIDKGFTLWAAEPGAARAMLLRQPFEKLQMSSDDGTSLLFLDFGGAEGEIQLDLHSCPKTMVFIIHSFLSAKVTRLGLLA	binds
β-dystroglycan (protein, UniProt Q62165 652-893, glycosylated form in the plakoglobin-containing fractions (sites not given)) SIVVEWTNNTLPLEPCPKEQIIGLSRRIADENGKPRPAFSNALEPDFKALSIAVTGSGSCRHLQFIPVAPPSPGSSAAPATEVPDRDPEKSSEDDVYLHTVIPAVVVAAILLIAGIIAMICYRKKRKGKLTLEDQATFIKKGVPIIFADELDDSKPPPSSSMPLILQEEKAPLPPPEYPNQSMPETTPLNQDTVGEYTPLRDEDPNAPPYQPPPPFTAPMEGKGSRPKNMTPYRSPPPYVPP	binds
β-sarcoglycan (protein, UniProt P82349 1-320) MAAAAAAAAATEQQGSNGPVKKSMREKAVERRNVNKEHNSNFKAGYIPIDEDRLHKTGLRGRKGNLAICVIVLLFILAVINLLITLVIWAVIRIGPNGCDSMEFHESGLLRFKQVSDMGVIHPLYKSTVGGRRNENLVITGNNQPIVFQQGTTKLSVEKNKTSITSDIGMQFFDPRTHNILFSTDYETHEFHLPSGVKSLNVQKASTERITSNATSDLNIKVDGRAIVRGNEGVFIMGKTIEFHMGGDVELKAENSIILNGTVMVSPTRLPSSSSGDQSGSGDWVRYKLCMCADGTLFKVQVTGHNMGCQVSDNPCGNTH	binds
caveolin 3 (protein, UniProt P51637 1-151) MMTEEHTDLEARIIKDIHCKEIDLVNRDPKNINEDIVKVDFEDVIAEPEGTYSFDGVWKVSFTTFTVSKYWCYRLLSTLLGVPLALLWGFLFACISFCHIWAVVPCIKSYLIEIQCISHIYSLCIRTFCNPLFAALGQVCSNIKVVLRREG	binds

The next lines start with the values.

binding	Molecule
binds	catalytic subunit of PI3K, type 3 (from UniProt Q6PF93 1-887) (enzyme)
binds	insulin receptor substrate 1 (from UniProt P35569 1-1233)
binds	insulin-like growth factor binding protein (mouse (endogenous in skeletal muscle))
binds	p85 regulatory subunit of PI3K (mouse (endogenous in skeletal muscle))
binds	γ-sarcoglycan (protein, UniProt P82348 1-291) MVREQYTTVTEGTHIERPENQHIYKIGIYGWRKRCLYLFVLLLLAILVVNLALTIWILKVMWFSPIGMGHLHVTADGLRLEGESEFLFPLYAKEIRSRVDSSLLLQSTQNVTVSARNSEGEVTGRVKVGAQMVEVQSQHFQINSEDGKPLFSAEEQDVVVGTGRLRVTGPEGALFEHSVETPLVRADPFQDLRLESPTRSLSMDAPRGVHVKANAGKLEALSQMDIILQSSEGVLVLDAETVGLTKLKQGTQGPAGSSNGFYEICACPDGKLYLSMAGEVTTCEEHSHVCL
